The other results are listed elsewhere or left out. Small differences around the control level are noise.
Compound: Cc1nc(Nc2ncc(C(=O)Nc3c(C)cccc3Cl)s2)cc(N2CCN(CCO)CC2)n1 [dasatinib]
Assay: log2 fold change of tryptic peptide abundance, ligand vs vehicle (limited proteolysis) (log2 ratio); higher = more trypsin-susceptible (destabilized)
Conditions: ligand concentration: 5 uM; sample: K562 cleared lysate

Chains of the proteins cited; added tags and fusions are not shown. Lines headed by an entry give the natural chain unless they say otherwise; changes in a name come on top.
UniProt Q9UPU5: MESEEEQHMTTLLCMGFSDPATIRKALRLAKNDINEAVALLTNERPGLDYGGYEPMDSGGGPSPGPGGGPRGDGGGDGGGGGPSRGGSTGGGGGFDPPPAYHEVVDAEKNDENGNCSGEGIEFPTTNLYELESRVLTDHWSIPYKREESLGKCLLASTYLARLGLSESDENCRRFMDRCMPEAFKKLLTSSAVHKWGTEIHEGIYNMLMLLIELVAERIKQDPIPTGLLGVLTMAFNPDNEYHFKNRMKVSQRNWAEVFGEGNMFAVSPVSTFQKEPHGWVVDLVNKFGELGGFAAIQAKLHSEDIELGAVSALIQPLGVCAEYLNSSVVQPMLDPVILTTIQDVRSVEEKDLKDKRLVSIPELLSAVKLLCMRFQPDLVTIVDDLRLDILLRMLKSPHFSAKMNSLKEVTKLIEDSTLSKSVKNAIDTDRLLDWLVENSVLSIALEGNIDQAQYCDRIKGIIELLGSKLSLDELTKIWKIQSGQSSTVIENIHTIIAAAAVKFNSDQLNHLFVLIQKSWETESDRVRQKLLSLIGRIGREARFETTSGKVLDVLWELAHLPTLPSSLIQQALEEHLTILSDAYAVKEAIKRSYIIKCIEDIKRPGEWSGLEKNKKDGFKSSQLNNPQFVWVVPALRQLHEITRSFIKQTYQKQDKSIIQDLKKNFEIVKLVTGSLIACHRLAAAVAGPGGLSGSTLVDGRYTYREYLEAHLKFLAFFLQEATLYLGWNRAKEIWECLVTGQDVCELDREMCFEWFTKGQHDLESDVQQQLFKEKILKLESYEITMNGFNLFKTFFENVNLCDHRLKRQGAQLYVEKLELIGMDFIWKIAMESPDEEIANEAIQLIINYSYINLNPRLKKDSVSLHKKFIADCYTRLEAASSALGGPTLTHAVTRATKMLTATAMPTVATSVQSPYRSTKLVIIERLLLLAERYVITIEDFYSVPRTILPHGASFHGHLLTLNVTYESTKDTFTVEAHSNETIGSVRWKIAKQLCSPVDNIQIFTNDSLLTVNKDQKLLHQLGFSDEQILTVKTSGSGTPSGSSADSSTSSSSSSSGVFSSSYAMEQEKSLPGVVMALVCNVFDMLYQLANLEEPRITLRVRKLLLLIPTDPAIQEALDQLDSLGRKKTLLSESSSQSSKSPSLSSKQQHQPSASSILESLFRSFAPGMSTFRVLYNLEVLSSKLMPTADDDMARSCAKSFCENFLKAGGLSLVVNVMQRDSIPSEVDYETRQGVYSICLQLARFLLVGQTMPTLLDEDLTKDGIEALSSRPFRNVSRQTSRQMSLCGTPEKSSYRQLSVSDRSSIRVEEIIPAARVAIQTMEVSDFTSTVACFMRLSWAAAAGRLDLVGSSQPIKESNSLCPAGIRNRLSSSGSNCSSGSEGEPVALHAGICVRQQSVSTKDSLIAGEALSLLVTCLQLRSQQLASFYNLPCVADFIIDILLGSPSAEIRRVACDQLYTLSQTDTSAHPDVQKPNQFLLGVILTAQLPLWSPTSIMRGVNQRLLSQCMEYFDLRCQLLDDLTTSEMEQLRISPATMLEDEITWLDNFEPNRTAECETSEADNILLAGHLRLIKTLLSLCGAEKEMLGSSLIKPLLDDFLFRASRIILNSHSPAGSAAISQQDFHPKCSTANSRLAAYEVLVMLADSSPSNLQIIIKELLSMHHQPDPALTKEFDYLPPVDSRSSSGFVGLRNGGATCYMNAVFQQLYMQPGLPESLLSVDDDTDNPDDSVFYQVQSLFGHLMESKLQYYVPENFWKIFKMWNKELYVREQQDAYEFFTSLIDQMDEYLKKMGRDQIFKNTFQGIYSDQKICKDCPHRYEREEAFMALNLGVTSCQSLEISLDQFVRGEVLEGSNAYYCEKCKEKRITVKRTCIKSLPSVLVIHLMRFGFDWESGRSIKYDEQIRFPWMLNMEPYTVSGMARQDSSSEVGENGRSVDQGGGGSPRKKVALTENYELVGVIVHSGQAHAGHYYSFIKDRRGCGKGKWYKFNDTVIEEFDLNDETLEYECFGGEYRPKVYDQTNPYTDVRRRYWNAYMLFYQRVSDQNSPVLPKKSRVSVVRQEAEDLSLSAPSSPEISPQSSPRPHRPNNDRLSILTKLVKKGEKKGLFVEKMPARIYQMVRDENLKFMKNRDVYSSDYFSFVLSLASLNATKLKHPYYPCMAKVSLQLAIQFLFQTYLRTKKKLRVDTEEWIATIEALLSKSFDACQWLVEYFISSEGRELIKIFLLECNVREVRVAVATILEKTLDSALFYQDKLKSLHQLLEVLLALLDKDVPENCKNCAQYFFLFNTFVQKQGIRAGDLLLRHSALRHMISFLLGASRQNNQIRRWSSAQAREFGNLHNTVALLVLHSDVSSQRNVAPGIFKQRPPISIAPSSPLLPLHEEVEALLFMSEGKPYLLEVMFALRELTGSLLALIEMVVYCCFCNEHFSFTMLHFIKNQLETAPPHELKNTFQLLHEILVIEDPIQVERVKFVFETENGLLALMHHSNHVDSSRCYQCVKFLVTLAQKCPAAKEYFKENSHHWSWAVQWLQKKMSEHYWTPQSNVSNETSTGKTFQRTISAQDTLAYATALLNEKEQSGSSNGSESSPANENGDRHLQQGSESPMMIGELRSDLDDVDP
UniProt Q9UQC2, whole entry: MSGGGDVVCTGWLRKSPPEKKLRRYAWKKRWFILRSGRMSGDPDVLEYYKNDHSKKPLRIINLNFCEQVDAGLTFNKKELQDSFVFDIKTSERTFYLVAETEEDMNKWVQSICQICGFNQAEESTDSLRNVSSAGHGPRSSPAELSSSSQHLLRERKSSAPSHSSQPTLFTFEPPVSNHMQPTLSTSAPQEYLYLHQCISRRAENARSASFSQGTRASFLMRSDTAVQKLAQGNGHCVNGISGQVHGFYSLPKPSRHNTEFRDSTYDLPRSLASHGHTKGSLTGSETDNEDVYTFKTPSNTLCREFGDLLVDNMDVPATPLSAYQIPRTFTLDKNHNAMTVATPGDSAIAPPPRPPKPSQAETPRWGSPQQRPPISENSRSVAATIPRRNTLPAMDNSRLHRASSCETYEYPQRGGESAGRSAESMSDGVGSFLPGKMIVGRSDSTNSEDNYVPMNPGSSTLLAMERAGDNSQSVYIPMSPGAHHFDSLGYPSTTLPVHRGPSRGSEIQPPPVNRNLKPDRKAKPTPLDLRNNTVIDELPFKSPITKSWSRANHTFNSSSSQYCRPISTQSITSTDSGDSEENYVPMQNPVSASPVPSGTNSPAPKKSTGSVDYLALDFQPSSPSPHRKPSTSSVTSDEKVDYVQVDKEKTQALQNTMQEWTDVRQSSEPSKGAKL
UniProt Q9UI95, whole entry: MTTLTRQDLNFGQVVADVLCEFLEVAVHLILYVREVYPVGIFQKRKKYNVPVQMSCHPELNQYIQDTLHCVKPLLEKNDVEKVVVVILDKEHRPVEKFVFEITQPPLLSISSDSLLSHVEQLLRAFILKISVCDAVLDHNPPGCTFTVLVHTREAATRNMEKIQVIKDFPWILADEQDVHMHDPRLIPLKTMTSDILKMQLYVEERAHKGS
UniProt Q9UHQ4: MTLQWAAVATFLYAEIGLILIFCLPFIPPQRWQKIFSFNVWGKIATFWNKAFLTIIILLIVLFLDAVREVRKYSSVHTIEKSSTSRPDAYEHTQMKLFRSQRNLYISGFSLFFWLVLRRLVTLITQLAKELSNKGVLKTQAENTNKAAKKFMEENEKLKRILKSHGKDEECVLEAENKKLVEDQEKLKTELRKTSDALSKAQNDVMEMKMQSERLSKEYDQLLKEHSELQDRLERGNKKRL
UniProt Q9ULJ6: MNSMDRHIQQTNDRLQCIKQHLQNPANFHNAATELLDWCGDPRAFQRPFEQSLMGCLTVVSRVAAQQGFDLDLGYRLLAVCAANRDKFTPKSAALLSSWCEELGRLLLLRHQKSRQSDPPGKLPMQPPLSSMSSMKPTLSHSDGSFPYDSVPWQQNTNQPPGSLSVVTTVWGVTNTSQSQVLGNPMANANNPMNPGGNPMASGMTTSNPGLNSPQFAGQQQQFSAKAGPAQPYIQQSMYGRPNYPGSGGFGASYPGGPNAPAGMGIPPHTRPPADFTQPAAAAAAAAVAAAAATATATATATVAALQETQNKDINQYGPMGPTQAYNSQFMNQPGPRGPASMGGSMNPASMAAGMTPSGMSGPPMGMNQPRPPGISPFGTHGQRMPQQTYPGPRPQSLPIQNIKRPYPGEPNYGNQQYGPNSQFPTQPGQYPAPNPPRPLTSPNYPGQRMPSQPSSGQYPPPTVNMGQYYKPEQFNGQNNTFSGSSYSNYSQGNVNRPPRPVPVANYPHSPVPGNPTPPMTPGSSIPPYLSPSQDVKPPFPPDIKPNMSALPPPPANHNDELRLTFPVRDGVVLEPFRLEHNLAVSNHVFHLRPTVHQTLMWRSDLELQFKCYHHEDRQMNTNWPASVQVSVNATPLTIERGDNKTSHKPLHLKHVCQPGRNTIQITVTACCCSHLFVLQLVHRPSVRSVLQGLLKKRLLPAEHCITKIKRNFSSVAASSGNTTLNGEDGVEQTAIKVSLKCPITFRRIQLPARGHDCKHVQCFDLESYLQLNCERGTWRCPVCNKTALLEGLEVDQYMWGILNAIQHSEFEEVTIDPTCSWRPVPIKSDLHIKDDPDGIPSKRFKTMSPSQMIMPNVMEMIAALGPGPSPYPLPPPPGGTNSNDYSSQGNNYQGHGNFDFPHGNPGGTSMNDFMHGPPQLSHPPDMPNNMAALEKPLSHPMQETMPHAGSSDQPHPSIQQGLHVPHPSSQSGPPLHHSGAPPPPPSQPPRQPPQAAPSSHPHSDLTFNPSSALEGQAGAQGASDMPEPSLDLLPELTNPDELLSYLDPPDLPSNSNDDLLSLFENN
UniProt Q9UMZ2: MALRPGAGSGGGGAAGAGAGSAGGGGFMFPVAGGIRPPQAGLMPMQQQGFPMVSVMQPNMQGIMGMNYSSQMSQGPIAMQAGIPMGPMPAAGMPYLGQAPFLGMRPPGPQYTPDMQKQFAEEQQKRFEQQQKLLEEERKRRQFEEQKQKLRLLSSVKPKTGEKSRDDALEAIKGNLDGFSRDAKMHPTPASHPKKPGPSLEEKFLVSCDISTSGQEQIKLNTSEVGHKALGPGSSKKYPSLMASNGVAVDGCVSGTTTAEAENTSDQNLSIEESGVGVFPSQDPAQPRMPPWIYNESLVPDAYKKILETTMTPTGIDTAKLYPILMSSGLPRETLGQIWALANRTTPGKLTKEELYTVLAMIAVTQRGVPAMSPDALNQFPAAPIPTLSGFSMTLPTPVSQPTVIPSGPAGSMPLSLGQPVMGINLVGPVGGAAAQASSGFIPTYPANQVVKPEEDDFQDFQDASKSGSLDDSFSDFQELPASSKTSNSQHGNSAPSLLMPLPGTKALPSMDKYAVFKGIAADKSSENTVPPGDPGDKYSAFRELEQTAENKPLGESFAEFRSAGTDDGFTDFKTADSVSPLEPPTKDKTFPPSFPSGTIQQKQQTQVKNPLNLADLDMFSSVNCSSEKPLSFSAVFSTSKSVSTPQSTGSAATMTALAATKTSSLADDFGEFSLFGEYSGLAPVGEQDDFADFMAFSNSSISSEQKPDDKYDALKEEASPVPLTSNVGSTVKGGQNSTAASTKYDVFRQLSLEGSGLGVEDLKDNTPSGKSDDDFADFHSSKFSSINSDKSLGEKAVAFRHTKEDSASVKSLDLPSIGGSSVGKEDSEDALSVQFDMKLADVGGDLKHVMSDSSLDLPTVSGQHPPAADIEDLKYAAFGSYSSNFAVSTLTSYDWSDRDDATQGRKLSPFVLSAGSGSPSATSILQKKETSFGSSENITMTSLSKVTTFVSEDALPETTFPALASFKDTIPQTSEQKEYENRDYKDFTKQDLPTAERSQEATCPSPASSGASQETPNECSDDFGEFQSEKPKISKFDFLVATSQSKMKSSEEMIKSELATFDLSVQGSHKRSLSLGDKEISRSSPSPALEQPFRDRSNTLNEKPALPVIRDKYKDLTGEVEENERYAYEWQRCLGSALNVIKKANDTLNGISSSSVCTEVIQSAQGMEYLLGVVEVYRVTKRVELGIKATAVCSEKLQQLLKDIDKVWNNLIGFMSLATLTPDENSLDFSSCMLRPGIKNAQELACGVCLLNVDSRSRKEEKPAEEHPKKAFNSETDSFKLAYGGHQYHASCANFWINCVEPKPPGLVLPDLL
UniProt Q9UL46, whole entry: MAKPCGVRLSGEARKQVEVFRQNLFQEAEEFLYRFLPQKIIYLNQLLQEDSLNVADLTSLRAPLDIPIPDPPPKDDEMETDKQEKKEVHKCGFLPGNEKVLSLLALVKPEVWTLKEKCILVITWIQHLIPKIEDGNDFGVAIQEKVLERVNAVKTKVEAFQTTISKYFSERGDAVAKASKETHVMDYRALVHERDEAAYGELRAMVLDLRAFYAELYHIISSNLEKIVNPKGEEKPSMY

Target	log2 fold change
USP24 (peptide sequence: TLLSESSSQSSKSPSLSSK, peptide start residue: 1129) (UniProt Q9UPU5)	0.392
UniProt Q9ULM2 (peptide sequence: WKDQDIEDEHKNQGR, peptide start residue: 100)	0.195
GAB2 (peptide sequence: NNTVIDELPFK, peptide start residue: 532) (UniProt Q9UQC2)	0.23
MAD2L2 (peptide sequence: EVYPVGIFQK, peptide start residue: 35) (UniProt Q9UI95)	0.153
BCAP29 (peptide sequence: LVEDQEKLK, peptide start residue: 180) (UniProt Q9UHQ4)	-0.342
ZMIZ1 (peptide sequence: SDLELQFK, peptide start residue: 604) (UniProt Q9ULJ6)	-0.3
UniProt Q9UMZ2 (peptide sequence: DTIPQTSEQK, peptide start residue: 969)	0.245
PSME2 (peptide sequence: IVNPKGEEKPSMY, peptide start residue: 227) (UniProt Q9UL46)	0.209
